Assay [1] addresses Flag-tagged IBV RdRp (Group a) (influenza B virus). As to the kind of experiment: affinity purification with mass spectrometry.
Assay [2] addresses Flag-tagged IBV vRNP (Group b) (influenza B virus). The assay can be described thus: affinity purification with mass spectrometry.

Results on two molecules are retold here after publication doi:10.1101/2025.09.18.676991.

No constants are given. Whether binding was seen depends on the method and setting. In cells and extracts the contact can be indirect. Here binding means that the protein was enriched with, or labelled near, the bait; the list need not be complete.

B1: STOML2, endogenous (protein, UniProt Q9UJZ1-2 29-311)
chain: SSGLPRNTVVLFVPQQEAWVVERMGRFHRILEPGLNILIPVLDRIRYVQSLKEIVINVPEQSAVTLDNVTLQIDGVLYLRIMDPYKASYGVEDPEYAVTQLAQTTMRSELGKLSLDKVFRVEAERRKRATVLESEGTRESAINVAEGKKQAQILASEAEKAEQINQAAGEASAVLAKAKAKAEAIRILAAALTQHNGDAAASLTVAEQYVSAFSKLAKDSNTILLPSNPGDVTSMVAQAMGVYGALTKAPVPGTPDSLSSGSSRDVQGTDASLDEELDRVKMS
As to B1, the binding result in assay [1] and in assay [2] was “binds” each time.

B2: protein phosphatase Mg2+/Mn2+-dependent 1G (PPM1G), endogenous (enzyme, UniProt O15355 1-546)
chain: MGAYLSQPNTVKCSGDGVGAPRLPLPYGFSAMQGWRVSMEDAHNCIPELDSETAMFSVYDGHGGEEVALYCAKYLPDIIKDQKAYKEGKLQKALEDAFLAIDAKLTTEEVIKELAQIAGRPTEDEDEKEKVADEDDVDNEEAALLHEEATMTIEELLTRYGQNCHKGPPHSKSGGGTGEEPGSQGLNGEAGPEDSTRETPSQENGPTAKAYTGFSSNSERGTEAGQVGEPGIPTGEAGPSCSSASDKLPRVAKSKFFEDSEDESDEAEEEEEDSEECSEEEDGYSSEEAENEEDEDDTEEAEEDDEEEEEEMMVPGMEGKEEPGSDSGTTAVVALIRGKQLIVANAGDSRCVVSEAGKALDMSYDHKPEDEVELARIKNAGGKVTMDGRVNGGLNLSRAIGDHFYKRNKNLPPEEQMISALPDIKVLTLTDDHEFMVIACDGIWNVMSSQEVVDFIQSKISQRDENGELRLLSSIVEELLDQCLAPDTSGDGTGCDNMTCIIICFKPRNTAELQPESGKRKLEEVLSTEGAEENGNSDKKKKAKRD
As for B2, the binding result in assay [1] and in assay [2] was “binds” in each case.
